# PubChem BioAssay AID1259285 | Sanger Institute – 2017
# Purpose: 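Kinases needed for HCC56 growth and kinases whose loss boosts drug effects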 (primary screen)
# Cell system: human HCC56 colorectal cancer cells
# Knock-down reagent: siRNA pool against human genes
# Treatment: DMSO vehicle, or anchor drug BYL719 at 1 µM, cetuximab at 5 µg/ml, or trametinib at 10 nM
# Measurement: 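Replicate-averaged viability relative to non-targeting siRNA, expressed as a robust z-score from controls, plus a synergy score for each of three anchor drugs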
# Direction: viability robust z-score, no drug: higher = more viable cells, weaker knock-down effect; viability vs non-targeting pool, no drug: higher = more viable cells
# Active means: 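Essential when the drug-free viability robust z-score falls below -3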
# Meaning of the calls: active = essential without drug; inactive = no change without drug
# This is an unselected part of 794 reagents tested. Over the whole deposit, 20 (2.5%) were called active. 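Calls rest on the drug-free arm alone and ignore synergy scores; viability ratios seem to be capped at 1.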 Entries without a mark were called inactive. Not all columns of the deposit are shown. Not stated in the record: the amount of reagent, the time to read-out.
"viability robust z-score, no drug","viability vs non-targeting pool, no drug",gene
-0.0475,0.957,SCYL3 (SCY1 like pseudokinase 3)
0.0271,0.963,CDK20 (cyclin dependent kinase 20)
0.458,1,ADGRL2 (adhesion G protein-coupled receptor L2)
0.458,1,PTPRU (protein tyrosine phosphatase receptor type U)
-1.35,0.845,ATM (ATM serine/threonine kinase)
-0.141,0.949,PIP5K1C (phosphatidylinositol-4-phosphate 5-kinase type 1 gamma)
0.458,1,UCK2 (uridine-cytidine kinase 2)
0.458,1,FLT3 (fms related receptor tyrosine kinase 3)
-1.09,0.867,MARK4 (microtubule affinity regulating kinase 4)
0.458,1,BMP2K (BMP2 inducible kinase)
0.458,1,IPPK (inositol-pentakisphosphate 2-kinase)
0.306,0.987,ITPKC (inositol-trisphosphate 3-kinase C)
0.458,1,FLT1 (fms related receptor tyrosine kinase 1)
0.458,1,CDK17 (cyclin dependent kinase 17)
0.458,1,ITK (IL2 inducible T cell kinase)
0.458,1,NEK6 (NIMA related kinase 6)
0.458,1,DDR2 (discoidin domain receptor tyrosine kinase 2)
0.458,1,PRKAA1 (protein kinase AMP-activated catalytic subunit alpha 1)
-0.234,0.941,DYRK2 (dual specificity tyrosine phosphorylation regulated kinase 2)
-6.29 (active),0.421,POLR2B (RNA polymerase II subunit B)

Copied from the entries so far, 2 entries:
"viability robust z-score, no drug","viability vs non-targeting pool, no drug",gene
0.458,1,DDR2 (discoidin domain receptor tyrosine kinase 2)
0.458,1,PRKAA1 (protein kinase AMP-activated catalytic subunit alpha 1)
